Changes are numbered by the printed parent chain. These are yes or no findings as the source states them, for the method shown. In cells and extracts the contact can be indirect. Some entries that bind do so weakly or less than the wild type.
Assays:
Assay in all cases: co-IP; mGlu1 and GluD1 (WT or mutant) co-expressed in HEK cells; membrane protein extraction, immunoprecipitation, western blotting
GluD1^R161H (mouse) = target: T1, GluD1^R161H (mouse) (UniProt Q61627)
T1 sequence: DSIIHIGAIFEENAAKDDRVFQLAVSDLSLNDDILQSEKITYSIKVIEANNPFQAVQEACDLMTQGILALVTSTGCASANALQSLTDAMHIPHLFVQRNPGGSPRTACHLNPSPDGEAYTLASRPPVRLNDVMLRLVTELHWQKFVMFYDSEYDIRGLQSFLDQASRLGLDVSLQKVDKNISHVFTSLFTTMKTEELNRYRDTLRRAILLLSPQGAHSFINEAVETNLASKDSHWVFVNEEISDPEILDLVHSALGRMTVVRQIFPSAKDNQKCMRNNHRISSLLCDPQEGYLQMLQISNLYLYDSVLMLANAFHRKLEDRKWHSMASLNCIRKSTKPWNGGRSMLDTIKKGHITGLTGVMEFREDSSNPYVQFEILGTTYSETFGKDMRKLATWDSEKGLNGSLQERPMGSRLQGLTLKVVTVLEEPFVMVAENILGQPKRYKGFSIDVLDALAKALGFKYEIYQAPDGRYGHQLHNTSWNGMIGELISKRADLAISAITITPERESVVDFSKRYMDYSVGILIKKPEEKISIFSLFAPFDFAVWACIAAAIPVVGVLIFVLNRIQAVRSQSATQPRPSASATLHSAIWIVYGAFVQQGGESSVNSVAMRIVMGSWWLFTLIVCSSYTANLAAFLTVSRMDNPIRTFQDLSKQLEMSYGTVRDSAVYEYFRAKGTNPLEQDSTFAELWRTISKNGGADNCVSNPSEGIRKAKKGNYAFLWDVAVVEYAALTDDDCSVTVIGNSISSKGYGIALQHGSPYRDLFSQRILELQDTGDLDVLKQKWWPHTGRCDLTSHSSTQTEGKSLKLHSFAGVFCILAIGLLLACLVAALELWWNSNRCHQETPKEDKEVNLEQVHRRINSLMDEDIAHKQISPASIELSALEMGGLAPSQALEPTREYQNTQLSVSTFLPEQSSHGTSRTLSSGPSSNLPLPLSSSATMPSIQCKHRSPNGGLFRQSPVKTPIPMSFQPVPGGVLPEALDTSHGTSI

Chains of the proteins cited; added tags and fusions are not shown. Residues count along the entry.
UniProt P23385, residues 19-1199: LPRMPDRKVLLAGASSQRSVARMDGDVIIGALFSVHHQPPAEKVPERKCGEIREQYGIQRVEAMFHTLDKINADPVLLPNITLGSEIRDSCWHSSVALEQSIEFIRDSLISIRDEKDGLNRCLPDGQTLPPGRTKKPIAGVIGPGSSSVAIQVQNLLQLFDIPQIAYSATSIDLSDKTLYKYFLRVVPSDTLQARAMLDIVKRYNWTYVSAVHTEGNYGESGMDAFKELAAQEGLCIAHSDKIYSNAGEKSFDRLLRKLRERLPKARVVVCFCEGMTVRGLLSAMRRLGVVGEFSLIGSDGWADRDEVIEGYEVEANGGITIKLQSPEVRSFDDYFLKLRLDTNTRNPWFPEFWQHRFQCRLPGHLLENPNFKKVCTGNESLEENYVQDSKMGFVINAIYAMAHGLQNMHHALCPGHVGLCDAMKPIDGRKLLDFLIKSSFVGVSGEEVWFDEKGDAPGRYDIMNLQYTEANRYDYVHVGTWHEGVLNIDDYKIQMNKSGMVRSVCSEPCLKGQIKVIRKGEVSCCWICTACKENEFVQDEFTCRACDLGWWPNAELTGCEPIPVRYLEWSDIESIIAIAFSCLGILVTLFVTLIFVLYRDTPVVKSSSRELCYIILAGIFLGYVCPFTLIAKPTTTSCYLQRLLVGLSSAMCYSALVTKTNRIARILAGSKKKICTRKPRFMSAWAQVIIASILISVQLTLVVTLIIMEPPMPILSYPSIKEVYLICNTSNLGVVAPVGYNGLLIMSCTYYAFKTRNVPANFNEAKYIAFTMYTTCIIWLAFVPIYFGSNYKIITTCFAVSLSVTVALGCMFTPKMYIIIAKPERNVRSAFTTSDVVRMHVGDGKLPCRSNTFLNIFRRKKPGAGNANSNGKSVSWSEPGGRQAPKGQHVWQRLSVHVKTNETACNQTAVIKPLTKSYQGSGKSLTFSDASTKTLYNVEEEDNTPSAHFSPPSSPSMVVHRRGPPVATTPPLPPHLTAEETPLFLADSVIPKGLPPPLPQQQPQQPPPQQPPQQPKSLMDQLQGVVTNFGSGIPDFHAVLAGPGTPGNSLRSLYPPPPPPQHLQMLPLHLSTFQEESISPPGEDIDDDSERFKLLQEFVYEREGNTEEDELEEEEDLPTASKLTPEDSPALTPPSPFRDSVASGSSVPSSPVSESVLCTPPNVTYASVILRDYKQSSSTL

GluD1^T752M (mouse) = target: T2, GluD1^T752M (mouse) (UniProt Q61627)
T2 sequence: T1 sequence with H141R, T732M

[1] = target: T3, mouse WT GluD1 (GluD1^WT) (mouse) (UniProt Q61627)
T3 sequence: T1 sequence with H141R

Measured: binding

rat mGlu1a (from UniProt P23385 19-1199) (receptor)
binds: GluD1^R161H (mouse) | GluD1^T752M (mouse) | [1]

From PMC11176079
